Measured values published in patent US12729225B2, “Non-canonical SWI/SNF complex and uses thereof” (Dana-Farber Cancer Institute, Inc., priority 2018, dated 2026).

System: mSWI/SNF complexes
Assay: mSWI/SNF complex purification with HA-tagged baits and mass spectrometry (peptide counts)
Parameters: species or system human
Conditions: 293_HA-BRD7: HA-BRD7 bait purification; for Total: total peptide count per co-purified protein; for Unique: unique peptide count per co-purified protein

Molecule	Total	Unique
PCK2 (protein, UniProt Q16822 33-640, looked up) Phosphoenolpyruvate …: LSGDLGQLPTGIRDFVEHSARLCQPEGIHICDGTEAENTATLTLLEQQGLIRKLPKYNNCWLARTDPKDVARVESKTVIVTPSQRDTVPLPPGGARGQLGNWMSPADFQRAVDERFPGCMQGRTMYVLPFSMGPVGSPLSRIGVQLTDSAYVVASMRIMTRLGTPVLQALGDGDFVKCLHSVGQPLTGQGEPVSQWPCNPEKTLIGHVPDQREIISFGSGYGGNSLLGKKCFALRIASRLARDEGWLAEHMLILGITSPAGKKRYVAAAFPSACGKTNLAMMRPALPGWKVECVGDDIAWMRFDSEGRLRAINPENGFFGVAPGTSATTNPNAMATIQSNTIFTNVAETSDGGVYWEGIDQPLPPGVTVTSWLGKPWKPGDKEPCAHPNSRFCAPARQCPIMDPAWEAPEGVPIDAIIFGGRRPKGVPLVYEAFNWRHGVFVGSAMRSESTAAAEHKGKIIMHDPFAMRPFFGYNFGHYLEHWLSMEGRKGAQLPRIFHVNWFRRDEAGHFLWPGFGENARVLDWICRRLEGEDSARETPIGLVPKEGALDLSGLRAIDTTQLFSLPKDFWEQEVRDIRSYLTEQVNQDLPKEVLAELEALERRVHKM	8	8
BUD13 (protein, UniProt Q9BRD0 1-619, looked up) BUD13 homolog: MAAAPPLSKAEYLKRYLSGADAGVDRGSESGRKRRKKRPKPGGAGGKGMRIVDDDVSWTAISTTKLEKEEEEDDGDLPVVAEFVDERPEEVKQMEAFRSSAKWKLLGGHNEDLPSNRHFRHDTPDSSPRRVRHGTPDPSPRKDRHDTPDPSPRRARHDTPDPSPLRGARHDSDTSPPRRIRHDSSDTSPPRRARHDSPDPSPPRRPQHNSSGASPRRVRHDSPDPSPPRRARHGSSDISSPRRVHNNSPDTSRRTLGSSDTQQLRRARHDSPDLAPNVTYSLPRTKSGKAPERASSKTSPHWKESGASHLSFPKNSKYEYDPDISPPRKKQAKSHFGDKKQLDSKGDCQKATDSDLSSPRHKQSPGHQDSDSDLSPPRNRPRHRSSDSDLSPPRRRQRTKSSDSDLSPPRRSQPPGKKAAHMYSGAKTGLVLTDIQREQQELKEQDQETMAFEAEFQYAETVFRDKSGRKRNLKLERLEQRRKAEKDSERDELYAQWGKGLAQSRQQQQNVEDAMKEMQKPLARYIDDEDLDRMLREQEREGDPMANFIKKNKAKENKNKKVRPRYSGPAPPPNRFNIWPGYRWDGVDRSNGFEQKRFARLASKKAVEELAYKWSVEDM	8	8
EBNA1BP2 (protein, UniProt Q99848 1-306, looked up) Probable rRNA-processing …: MDTPPLSDSESESDESLVTDRELQDAFSRGLLKPGLNVVLEGPKKAVNDVNGLKQCLAEFKRDLEWVERLDVTLGPVPEIGGSEAPAPQNKDQKAVDPEDDFQREMSFYRQAQAAVLAVLPRLHQLKVPTKRPTDYFAEMAKSDLQMQKIRQKLQTKQAAMERSEKAKQLRALRKYGKKVQTEVLQKRQQEKAHMMNAIKKYQKGFSDKLDFLEGDQKPLAQRKKAGAKGQQMRKGPSAKRRYKNQKFGFGGKKKGSKWNTRESYDDVSSFRAKTAHGRGLKRPGKKGSNKRPGKRTREKMKNRTH	8	8
ZNF512 (protein, UniProt Q96ME7 1-567, looked up) Zinc finger protein 512: MSSRLGAVPATSGPTTFKQQRSTRIVGAKNSRTQCSIKDNSFQYTIPHDDSLSGSSSASSCEPVSDFPASFRKSTYWMKMRRIKPAATSHVEGSGGVSAKGKRKPRQEEDEDYREFPQKKHKLYGRKQRPKTQPNPKSQARRIRKEPPVYAAGSLEEQWYLEIVDKGSVSCPTCQAVGRKTIEGLKKHMENCKQEMFTCHHCGKQLRSLAGMKYHVMANHNSLPILKAGDEIDEPSERERLRTVLKRLGKLRCMRESCSSSFTSIMGYLYHVRKCGKGAAELEKMTLKCHHCGKPYRSKAGLAYHLRSEHGPISFFPESGQPECLKEMNLESKSGGRVQRRSAKIAVYHLQELASAELAKEWPKRKVLQDLVPDDRKLKYTRPGLPTFSQEVLHKWKTDIKKYHRIQCPNQGCEAVYSSVSGLKAHLGSCTLGNFVAGKYKCLLCQKEFVSESGVKYHINSVHAEDWFVVNPTTTKSFEKLMKIKQRQQEEEKRRQQHRSRRSLRRRQQPGIELPETELSLRVGKDQRRNNEELVVSASCKEPEQEPVPAQFQKVKPPKTNHKRGRK	8	8
